The assay has as its target T1, human Syndecan-4 (human) (UniProt P31431).
T1 sequence (chain, glycosaminoglycan chains (GAGs)): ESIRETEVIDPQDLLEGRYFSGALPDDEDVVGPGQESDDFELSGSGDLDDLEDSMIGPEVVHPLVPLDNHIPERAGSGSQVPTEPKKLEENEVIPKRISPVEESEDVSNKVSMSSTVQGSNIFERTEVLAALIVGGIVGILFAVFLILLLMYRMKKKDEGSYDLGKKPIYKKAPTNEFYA
As to the kind of experiment: cell surface binding, AP fusion on transfected HEK293T cells.

These results are taken from patent US20120263730A1 (DEUTSCHES KREBSFORSCHUNGSZENTRUM, published 2012).

These are yes or no findings as the source states them, for the method shown. Some results given as binding are weak or reduced against the parent protein; the word gives no strength. Where a sequence is shown, tags or fusion partners need not be part of it.

B1: hRspo3TSP-AP (signal peptide fused to the TSP domain aa146-209 of human Rspondin-3, followed by AP tag) (ligand, not shown: large carriers)
chain: VHCEVSEWNPWSPCTKKGKTCGFKRGTETRVREIIQHPSAKGNLCPPTNETRKCTVQRKKCQKG
As to B1, the binding entry is reported as “binds”.
